According to PubChem BioAssay AID540256 (National Center for Advancing Translational Sciences (NCATS), 2011):
Hit rate of the full screen: of about 300,000 compounds, about 3,700 (1.2%) were called active. Inconclusive means that the source gave no clear call. Such entries were picked first, then a sample of the others. The call rests on the fitted dose curve; tested in HEK293 cells. Potencies of inconclusive entries are doubtful fits and often do not repeat.

Experiment: qHTS for Inhibitors of binding or entry into cells for Lassa Virus; further: nearly all actives have a fitted effect of over 50% in size
Details: Lassa virus pseudotype entry inhibition, cell reporter; series mostly up to 37.9 µM
Potency means the concentration at half of the fitted maximal effect.

Row | SMILES | Potency
1 | Cc1cc(C)n(-c2nc(NCCN(C)C)c3c4c(sc3n2)COC(C)(C)C4)n1 | active: 12.6 µM
2 | Cc1cc(=O)n(CCc2ccccc2)c(O)c1C#N | inconclusive: 35.5 µM [inhibitor, single point]
3 | COc1ccc(S(=O)(=O)NCCc2ccccn2)cc1 | inconclusive: 3.55 µM [inhibitor, partial curve, poor fit]
4 | N#C/C(=C\c1ccc[nH]1)C(=O)c1ccccc1 | inactive
5 | O=c1c2c3c(sc2nc2n1CCC2)CCCCC3 | inactive
6 | COc1ccccc1NS(=O)(=O)c1cccc(NC(=O)Nc2ccc(Cl)cc2)c1 | active: 6.31 µM
7 | C/C(=N\NC(=O)c1cccc(C)c1)c1cccc(NC(=O)c2ccco2)c1 | inactive
8 | Cc1cccc(Cn2c(=O)c3c(nc4n3CCN4Cc3ccco3)n(C)c2=O)c1 | inactive
9 | CCn1cc(C(=O)NCCc2ccc(Cl)cc2)c(=O)c2cc(S(=O)(=O)N3CCC(C)CC3)ccc21 | inactive
10 | Cc1ccc(NC(=O)C2CC(O)CN2C(=O)Oc2ccccc2)c(C)c1 (configuration not stated) | inactive
11 | O=C(NCC(c1ccc2c(c1)OCO2)N1CCOCC1)c1c(F)cccc1F (configuration not stated) | inconclusive: 3.16 µM [inhibitor, full curve, poor fit]
12 | CCOC(=O)C(NC(=O)NCc1cccc(C(F)(F)F)c1)(OCC)C(F)(F)F (configuration not stated) | inconclusive: 17.8 µM [inhibitor, partial curve, poor fit]
13 | O=C(N/N=C/c1c(O)ccc2ccccc12)c1ccc(Br)o1 | inconclusive: 4.47 µM [inhibitor, partial curve, poor fit]
14 | CCOC(=O)C12CC1/C(=N/O)c1ccccc1O2 (configuration not stated) | inconclusive: 0.0326 µM [activator, full curve, poor fit]
15 | COc1ccc(/C=N/NC(=O)c2nc(Cl)c(Cl)c(N)c2Cl)cc1COc1ccccc1F | inactive
16 | O=C(c1ccccc1)N1CCN(C(=O)c2ccccc2)C1c1ccccc1 | inconclusive: 35.5 µM [inhibitor, partial curve, poor fit]
17 | O=C(Nc1ccccc1)c1ccc(NCCN2CCOCC2)c(S(=O)(=O)N2CCOCC2)c1 | inconclusive: 29.1 µM [inhibitor, partial curve, poor fit]
18 | O=C(NNC(=S)Nc1cccc2ccccc12)c1cccc(Br)c1 | inconclusive: 2.91 µM [activator, full curve]
19 | Cc1occc1-c1nnc(SCC(=O)N2CCN(c3ccccc3)CC2)n1C | inactive
20 | CCN1CCN(CCCNC(=O)c2ccc3nc(Cc4ccccc4)oc3c2)CC1 | inconclusive: 11.2 µM [activator, partial curve]
21 | Cc1nn(-c2ccccc2)c(Cl)c1C(=O)NCC(C)c1ccccc1 (configuration not stated) | inconclusive: 8.91 µM [inhibitor, partial curve, poor fit]
22 | CCc1cccc(C)c1NC(=S)NCc1ccc2[nH]c(C)cc2c1 | inconclusive: 10.3 µM [inhibitor, partial curve]
23 | O=C1c2ccccc2C(=O)c2c1oc(C(F)(F)F)c2C(=O)c1ccccc1 | inconclusive: 17.8 µM [inhibitor, single point]
24 | CC1CN(S(=O)(=O)c2cc(C(=O)NCCC3=CCCCC3)ccc2Cl)CC(C)O1 (configuration not stated) | inconclusive: 4.47 µM [inhibitor, partial curve]

Row | SMILES | Potency
25 | CC(C)OC(=O)CSc1nnc(-c2cnccn2)n1C | inactive
26 | O=C(c1cccnc1)N1CCN(Cc2ccc3c(c2)OCO3)CC1 | inactive
27 | COc1ccccc1NC(=O)c1sc2nc(C)c(C(=O)Nc3ccc(C)cc3C)c(-c3ccc(C)o3)c2c1N | inconclusive: 35.5 µM [inhibitor, partial curve, poor fit]
28 | CS(=O)(=O)N(Cc1ccc(Cl)cc1)c1ccc(C(=O)NCC2CCCO2)cc1 (configuration not stated) | inconclusive: 3.16 µM [inhibitor, partial curve, poor fit]
29 | COc1ccc(OCC(=O)N2CCN(C(=O)c3cccc(OC)c3)CC2)cc1 | inconclusive: 8.91 µM [inhibitor, partial curve]
30 | CN(C)c1nc(/C=C(\C#N)C(N)=O)c(Cl)n1-c1ccc(F)cc1 | inconclusive: 8.91 µM [inhibitor, partial curve, poor fit]
31 | Cn1nnc(NC(=S)NC(=O)c2ccc(-c3ccc(Br)cc3)o2)n1 | inconclusive: 10 µM [inhibitor, partial curve]
32 | CC(=O)Nc1ccc(OC(=O)c2cc3ccccc3oc2=O)cc1 | inactive
33 | COc1cccc(CNC(=O)CCc2c(C)c3cc4c(C)coc4c(C)c3oc2=O)c1 | inactive
34 | COc1ccc(C(CCNCc2ccc(N(C)C)cc2)c2ccccc2)cc1 (configuration not stated) | inconclusive: 15.8 µM [inhibitor, single point]
35 | Cc1ccc(NC(=O)COC(=O)CNC(=O)c2ccco2)cc1 | inactive
36 | O=C(Nc1ccc2nc(-c3cccnc3)[nH]c2c1)c1ccccc1F | inconclusive: 16.4 µM [inhibitor, single point]
37 | O=C(c1ccccc1)N(Cc1ccco1)Cc1cccs1 | inconclusive: 7.94 µM [activator, partial curve, poor fit]
38 | COc1ccc(NC(=O)/C=C\C(=O)N(c2ccc(C(C)C)cc2)C(C(=O)NCc2ccco2)c2ccc(F)cc2)cc1 (configuration not stated) | inconclusive: 22.4 µM [inhibitor, single point]
39 | Cc1cc(N2CCN(C)CC2)nc2ccc(NC(=O)c3ccc(Br)o3)cc12 | inactive
40 | COc1ccccc1C(=O)Nc1ccnn1C1CCN(Cc2cc(C)c(C)cc2C)CC1 | inconclusive: 35.5 µM [inhibitor, single point]
41 | CC(=O)c1cccc(NC(=O)COc2ccc(S(=O)(=O)N3CCOCC3)cc2)c1 | inconclusive: 7.94 µM [activator, partial curve]
42 | Cc1ccc(C)c(Cn2c(=O)cc(C)c3c(C)nn(C)c32)c1 | inconclusive: 3.55 µM [inhibitor, partial curve, poor fit]
43 | CCOC(=O)c1c(NC(=O)CSc2nnc(C)s2)sc2c1CCN(C)C2 | inactive
44 | COc1ccc(-n2nc(C(=O)O)nc2-c2ccccc2)cc1 | inconclusive: 0.447 µM [inhibitor, partial curve, poor fit]
45 | CC1=C(C(=O)OCc2ccccc2)C(/C=C/c2ccccc2)NC(=S)N1 (configuration not stated) | active: 12.6 µM
46 | Cc1ccc(-n2ncc3c(=O)[nH]c(SCC(=O)N4CCCC4)nc32)cc1C | inactive
47 | O=C(COC(=O)CC(c1ccccc1)c1ccccc1)Nc1cccc(F)c1 | inactive
48 | CC(=NNC(=O)c1ccncc1)c1ccc(Cl)c(Cl)c1 | inactive

Row | SMILES | Potency
49 | COc1ccc(CCN2CC(C(=O)NCC3(O)CCCCC3)CCC2=O)cc1 (configuration not stated) | inactive
50 | N#C/C(=C\c1ccc(C(=O)O)cc1)c1ccccn1 | inconclusive: 2.82 µM [inhibitor, partial curve, poor fit]
51 | CCS(=O)(=O)c1ccc2oc(SCC(=O)NCCc3ccc(F)cc3)nc2c1 | inactive
52 | Cc1ccc(OCC(=O)N(Cc2sccc2C)C2CCS(=O)(=O)C2)cc1 (configuration not stated) | inactive
53 | Cc1cc(C)c2nc(C(F)(F)F)nc(NCCCN3CCOCC3)c2c1 | inconclusive: 29.1 µM [inhibitor, single point]
54 | COc1ccc(/C=C/C(=O)c2ccc(O)cc2)cc1CN1CCOCC1 | inconclusive: 23.1 µM [inhibitor, single point]
55 | CN1CCN(CCOCCOc2c(Cl)cc(Cl)cc2Cl)CC1 | inconclusive: 4.47 µM [inhibitor, full curve, poor fit]
56 | COc1ccc(C(C(=O)NC(C)(C)C)N(C(=O)Cn2nnc3ccccc32)c2cccc(C(C)=O)c2)cc1O (configuration not stated) | inactive
57 | O=C(CN1C(=O)S/C(=C\c2ccccc2)C1=O)NNC(=O)c1ccccc1O | inconclusive: 0.708 µM [inhibitor, single point]
58 | Cc1cccc2cc3c(N)c(C(=O)N4CCCc5ccccc54)sc3nc12 | active: 2.82 µM
59 | Cc1cc(N)n2nc(-c3ccc(C(C)(C)C)cc3)cc2n1 | inconclusive: 14.1 µM [inhibitor, partial curve, poor fit]
60 | CNC(=O)c1ccc(NC(=O)COc2ccc(-c3nn(C)c(=O)c4ccccc34)cc2)cc1 | inactive
61 | Cn1cc(/C=C2\SC(=O)N(c3ccccc3)C2=O)c2ccccc21 | inactive
62 | Cc1ccccc1NC(=O)Nc1cccs1 | inactive
63 | COc1ccc(Cl)cc1S(=O)(=O)N1CCC(C(=O)NCCc2ccccc2)CC1 | inconclusive: 6.31 µM [inhibitor, partial curve, poor fit]
64 | O=C(Cn1nnc(-c2cccs2)n1)OC1CCCCC1 | inactive
65 | CC(C)Cn1c(-c2cc(Br)ccc2F)nc2c1c(=O)[nH]c(=O)n2CC(C)C | inconclusive: 5.01 µM [inhibitor, full curve]
66 | COc1ccccc1N1CCN(S(=O)(=O)CCNC(=O)CCCc2ccccc2)CC1 | inconclusive: 35.5 µM [inhibitor, single point]
67 | O=CN1CCN(C2CC(=O)N(c3ccc(Br)cc3)C2=O)CC1 (configuration not stated) | inactive
68 | CCCOc1ccc(NC(=O)CC2C(=O)N(Cc3ccccc3)C(=S)N2Cc2cccs2)cc1 (configuration not stated) | inconclusive: 18.4 µM [inhibitor, single point]
69 | O=C(C(=NNc1ccccc1)c1ccccc1)c1ccccc1 | inconclusive: 15.8 µM [inhibitor, single point]
70 | O=C(COC(=O)COc1ccccc1[N+](=O)[O-])Nc1ccccc1Br | inconclusive: 0.631 µM [activator, full curve, poor fit]
71 | CC1(C)Cc2noc(N)c2C(C)(C)N1O | inactive
72 | COc1cc2nc(SCC(=O)Nc3cccc(C)c3)n3nc(-c4ccccc4)nc3c2cc1OC | inactive

Reformatted comma-delimited: entries from further up
Row,SMILES,Potency
52,Cc1ccc(OCC(=O)N(Cc2sccc2C)C2CCS(=O)(=O)C2)cc1 (configuration not stated),inactive
53,Cc1cc(C)c2nc(C(F)(F)F)nc(NCCCN3CCOCC3)c2c1,"inconclusive: 29.1 µM [inhibitor, single point]"
54,COc1ccc(/C=C/C(=O)c2ccc(O)cc2)cc1CN1CCOCC1,"inconclusive: 23.1 µM [inhibitor, single point]"
55,CN1CCN(CCOCCOc2c(Cl)cc(Cl)cc2Cl)CC1,"inconclusive: 4.47 µM [inhibitor, full curve, poor fit]"
56,COc1ccc(C(C(=O)NC(C)(C)C)N(C(=O)Cn2nnc3ccccc32)c2cccc(C(C)=O)c2)cc1O (configuration not stated),inactive
